The target of test [1] is T1, S100A14 (human (endogenous in SCC15)) (UniProt Q9HCY8).
T1 sequence: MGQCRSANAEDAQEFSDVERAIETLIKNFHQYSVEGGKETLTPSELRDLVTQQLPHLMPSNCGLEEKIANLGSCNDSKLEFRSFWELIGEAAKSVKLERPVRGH
Nature of the test: affinity purification with mass spectrometry; immunoprecipitation with anti-S100A14 from wild-type SCC15 cell lysate, TMT proteomics and LC-MS.

The chains behind the UniProt entries cited, without tags or fusion partners.
UniProt P22314: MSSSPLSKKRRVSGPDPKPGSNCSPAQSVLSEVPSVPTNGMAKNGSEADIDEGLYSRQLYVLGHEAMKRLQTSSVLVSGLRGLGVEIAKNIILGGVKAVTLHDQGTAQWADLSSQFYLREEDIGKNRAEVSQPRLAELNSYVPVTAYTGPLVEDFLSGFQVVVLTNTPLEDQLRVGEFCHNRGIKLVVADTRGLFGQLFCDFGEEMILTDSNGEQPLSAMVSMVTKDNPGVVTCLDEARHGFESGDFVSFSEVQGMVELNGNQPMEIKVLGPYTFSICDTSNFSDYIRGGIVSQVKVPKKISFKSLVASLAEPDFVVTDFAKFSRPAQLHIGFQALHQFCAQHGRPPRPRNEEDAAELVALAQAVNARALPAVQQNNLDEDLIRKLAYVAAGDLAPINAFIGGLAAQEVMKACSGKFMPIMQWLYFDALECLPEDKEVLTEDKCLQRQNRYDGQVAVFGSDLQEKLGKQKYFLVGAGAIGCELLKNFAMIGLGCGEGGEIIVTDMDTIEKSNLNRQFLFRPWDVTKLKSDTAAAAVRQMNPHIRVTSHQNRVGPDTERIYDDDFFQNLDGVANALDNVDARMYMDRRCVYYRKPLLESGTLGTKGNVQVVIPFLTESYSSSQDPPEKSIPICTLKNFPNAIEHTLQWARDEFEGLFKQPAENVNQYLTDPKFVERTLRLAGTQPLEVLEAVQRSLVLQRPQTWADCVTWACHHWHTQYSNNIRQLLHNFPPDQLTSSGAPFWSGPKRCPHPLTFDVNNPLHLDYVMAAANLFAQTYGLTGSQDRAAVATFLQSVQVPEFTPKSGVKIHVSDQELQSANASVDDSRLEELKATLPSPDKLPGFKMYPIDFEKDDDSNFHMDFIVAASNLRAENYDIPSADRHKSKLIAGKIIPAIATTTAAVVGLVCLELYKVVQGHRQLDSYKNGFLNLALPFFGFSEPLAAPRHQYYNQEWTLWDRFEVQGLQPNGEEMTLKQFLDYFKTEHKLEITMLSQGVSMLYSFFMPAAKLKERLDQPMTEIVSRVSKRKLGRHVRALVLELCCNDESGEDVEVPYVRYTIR

In test [2] the target is T1, S100A14 (human (endogenous in SCC15)). Description: condition: only in CAV2-silenced (shCAV2) SCC15 cells; affinity purification with mass spectrometry; immunoprecipitation with anti-S100A14 from shCAV2 (CAV2-silenced) SCC15 cell lysate, TMT proteomics and LC-MS.

These are yes or no findings as the source states them, for the method shown. Binding seen in cells or lysates may run through a third protein. These calls come from enrichment with a bait or labelling near it, and not all partners need be listed. For some assays here: No binding means not detected with the bait.

Regarding “E1 ubiquitin-activating enzyme UBE1 (from UniProt P22314 1-1058)”, the binding result in test [1] is recorded as “binds”; in test [2], “no binding”.

Source of the values: article PMC9481523.
